These are yes or no findings as the source states them, for the method shown. In cells and extracts the contact can be indirect. Some entries that bind do so weakly or less than the wild type.
Key:
[1] = biological target: APP Y682G, from APP^YG/YG knock-in mouse brain (mouse (endogenous in mouse brain)) (UniProt P12023); assay: co-IP; IP with monoclonal anti-APP from membrane enriched mouse brain fraction (500 ug membrane protein; IP buffer 20 mM Hepes pH 8.0, 10% glycerol, 137 mM NaCl, 0.5% Triton-X-100, 2 mM EDTA; protein A/G, overnight), blot for Fe65; APP^wt/wt, APP^YG/YG and APP^-/- mice
[2] = biological target: Aβ-precursor protein (APP), wild type, from APP^wt/wt mouse brain (mouse (endogenous in mouse brain)) (UniProt P12023); assay: as above

B1: Fe65 (protein, UniProt Q9QXJ1 1-710)
chain: MSVPSSLSQSAINANSHGGPALSFPLPLHAAHNQLLNAKLQATAVVPKDLRSAMGEGSVPEPGPANAKWLKEGQNQLRRAATAHRDQNRNVTLTLAEEASQEAETAPLGPKGLMHLYSELELSAHNAANRGLHGSALIINTQEQGPDEGEEKAAGEAEEDDEDEEEEEEEEDLSSPPGLPEPLENVEVPSGPQALTDGPREHSKSASLLFGMRNSAASDEDSSWATLSQGSPSYGSPEDTDSFWNPNAFETDSDLPAGWMRVQDTSGTYYWHIPTGTTQWEPPGRASPSQGSSPQEESQLTWTGFAHQEGFEEGEFWKDEPSEEAPMELGLKDPEEATLSFPAQSLSPEPVPQEEEKLSQRNANPGIKCFAVRSLGWVEMTEEELAPGRSSVAVNNCIRQLSYHKNNLHDPMAGGWGEGKDLLLQLEDETLKLVEPQNQTLLHAQPIVSIRVWGVGRDSGSNRDFAYVARDKLTQMLKCHVFRCEAPAKNIATSLHEICSKIMSERRNARCLVNGLSLDHSKLVDVPFQVEFPAPKNELVQKFQVYYLGNVPVAKPVGVDVINGALESVLSSSSREQWTPSHVSVAPATLTILHQQTEAVLGECRVRFLSFLAVGRDVHTFAFIMAAGPASFCCHMFWCEPNAASLSEAVQAACMLRYQKCLDARSQTSTSCLPAPPAESVARRVGWTVRRGVQSLWGSLKPKRLGSQTP
- binding [1]: no binding
- binding [2]: binds
